Measured values from PubChem BioAssay AID1487 (National Center for Advancing Translational Sciences (NCATS), 2009).
This is one part of the list. Shown are side measurements of this screen, not its main read-out; they come without a call. The list favours compounds with an active or inconclusive main result. Potencies come from curve fits of mixed quality, noted in brackets.

Test: qHTS Assay for Modulators of Lamin A Splicing
Conditions: HeLa LMNA splicing GFP/RFP minigene ratio, 48 h
Summary of the method: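 S3 HeLa stable clones carrying a lamin A-EGFP splicing minigene plus DsRed2 were seeded at 600 cells/well in Opti-MEM with 2% FBS, pin-dosed and incubated 48 h at 37°C. Acumen cytometry (488 nm) gave the GFP/RFP total-intensity ratio.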

[1] = measured here: GFP splicing reporter channel
[2] = measured here: RFP viability control channel

SMILES | AC50 [1] | AC50 [2]
CC(C)OC(=O)c1ccc(NC(=O)c2ccccc2)cc1 | 12.6 µM [rising, partial curve, poor fit] | 31.6 µM [rising, partial curve]
O=C1OCCN1/N=C\c1ccc([N+](=O)[O-])o1 | 0.01 µM [falling, full curve, poor fit] | –
O=C(COc1ccccc1F)Nc1ccc2nc(SCCOc3ccccc3)sc2c1 | – | 0.251 µM [falling, full curve, poor fit]
CC(C)(C)OC(=O)N1CCC(c2c(C(=O)NCc3cccc(Cl)c3)cnn2-c2ccc(F)cc2)CC1 | 0.00891 µM [rising, full curve] | –
O=C(C=C=Nc1ccccc1)C(=O)N=C=Cc1ccccc1 | 0.891 µM [falling, full curve, poor fit] | 2.82 µM [falling, partial curve]
O=C(NCc1cccnc1)C(=O)NCC1OCCN1S(=O)(=O)c1ccc(Cl)cc1 (stereo unspecified) | – | 35.5 µM [rising, single point]
COc1cc(/C=C(\C#N)C(=O)NCC2CCCO2)ccc1O (stereo unspecified) | – | 20 µM [rising, single point]
OCCNc1nc2ccccc2n1-c1ncnc2sc3c(c12)CCC3 | – | 17.8 µM [rising, single point]
Cc1ccc(S(=O)(=O)N2CCC(=O)N(C(CO)C(C)C)CC2)cc1 (stereo unspecified) | 0.708 µM [falling, full curve] | 1.58 µM [falling, partial curve, poor fit]
O=C(/C(=C/c1ccc(Cl)cc1)c1nc2ccccc2[nH]1)c1ccccc1 | 2.82 µM [falling, full curve] | 3.55 µM [falling, full curve]
CC1CCN(C(=O)Cn2c(=O)n(CC3CCC(C(=O)NC(C)C)CC3)c(=O)c3sccc32)CC1 (stereo unspecified) | 0.01 µM [falling, full curve, poor fit] | 0.00794 µM [falling, full curve, poor fit]
Nn1c(SCC(=O)Nc2ccc3c(c2)OCO3)nncc1=O | 0.01 µM [falling, full curve, poor fit] | 0.00447 µM [falling, full curve, poor fit]
On1c(-c2ccccc2Cl)nc2ccccc21 | – | 39.8 µM [falling, partial curve, poor fit]
Cn1cc(-c2cc3n(n2)CCC(=O)N3CCCC(=O)NCc2ccc(Cl)cc2)c2ccccc21 | – | 20 µM [falling, partial curve, poor fit]
Cc1ccc(NC(=O)COc2ncnc3ccccc23)cc1S(=O)(=O)N1CCOCC1 | – | 0.0355 µM [rising, full curve, poor fit]
O=C(O)CCCC(=O)NCCCCc1ccccc1 | – | 0.00501 µM [falling, full curve, poor fit]
CCOC(=O)c1cc(-c2ccc(OC)cc2)n(CCC(=O)Nc2ccccc2OC)c1C | 35.5 µM [falling, single point] | 0.0112 µM [falling, full curve, poor fit]
O=C(Cn1cc([N+](=O)[O-])nc1[N+](=O)[O-])N1CCN(c2ccccc2)CC1 | – | 35.5 µM [falling, single point]
Cc1ccc(/C=C2\SC(=S)N(Cc3ccccc3)C2=O)o1 | 22.4 µM [falling, single point] | 25.1 µM [falling, single point]
O=C(Nc1nnc(C2CC2)o1)c1ccc(S(=O)(=O)N2CCCc3ccccc32)cc1 | – | 10 µM [rising, partial curve]
COC(=O)c1ccc(N2CCCCC2)c(NS(=O)(=O)c2ccc(C)cc2)c1 | 14.1 µM [rising, single point] | 22.4 µM [rising, single point]
CS(=O)(=O)Nc1nnc(Cc2ccccc2)s1 | 1.58 µM [falling, partial curve] | 0.794 µM [falling, single point]
Cc1cccc(-n2c(SCC(=O)Nc3ncc(Cl)cc3Cl)nc3ccccc32)c1 | – | 2.82 µM [rising, partial curve]
CCCCCOc1ccc(Br)cc1/C(C)=N/NC1=NCCN1 | – | 3.16 µM [rising, full curve]
O=C(NC(NC(=S)Nc1ccccc1)C(Cl)(Cl)Cl)c1cccc(Cl)c1 (stereo unspecified) | 17.8 µM [falling, partial curve] | 25.1 µM [falling, partial curve]
C/C(=N\NC(=O)c1ccc(Br)cc1)C1C(=O)c2ccccc2C1=O | – | 17.8 µM [rising, partial curve, poor fit]
CCOC(=O)Cn1c(=O)n(CC2CCCO2)c2nc(-c3ccccc3OC)nc(C(N)=O)c21 (stereo unspecified) | 8.91 µM [falling, partial curve] | –

Four neighbouring records already listed, for reference:
SMILES | AC50 [1] | AC50 [2]
O=C(C=C=Nc1ccccc1)C(=O)N=C=Cc1ccccc1 | 0.891 µM [falling, full curve, poor fit] | 2.82 µM [falling, partial curve]
O=C(NCc1cccnc1)C(=O)NCC1OCCN1S(=O)(=O)c1ccc(Cl)cc1 (stereo unspecified) | – | 35.5 µM [rising, single point]
COc1cc(/C=C(\C#N)C(=O)NCC2CCCO2)ccc1O (stereo unspecified) | – | 20 µM [rising, single point]
OCCNc1nc2ccccc2n1-c1ncnc2sc3c(c12)CCC3 | – | 17.8 µM [rising, single point]

Additional records

SMILES | AC50 [1] | AC50 [2]
O=C(NCc1cccs1)c1ccc2c(=O)n3nc(Nc4ccccc4)sc3nc2c1 | 28.2 µM [falling, single point] | 2.51 µM [rising, partial curve]
Cc1c(NC(=O)/C(C#N)=C/c2ccc(-c3ccc(Cl)c(Cl)c3)o2)c(=O)n(-c2ccccc2)n1C | – | 0.891 µM [rising, partial curve, poor fit]
Cc1c(C=O)c2ccccc2n1CC(=O)N1CCc2ccccc2C1 | – | 25.1 µM [rising, single point]
Cc1ccc2[nH]c(=O)c(-c3nc4cc(C)ccn4c3NCc3ccco3)cc2c1 | 15.8 µM [rising, partial curve] | 15.8 µM [rising, partial curve, poor fit]
N#Cc1c(N)nc(SCc2ccncc2)c(C#N)c1-c1cccs1 | – | 11.2 µM [rising, single point]
CCOC(=O)CN1NC2(CCC(C(C)(C)C)CC2)NC1=S (stereo unspecified) | – | 35.5 µM [falling, single point]
Cc1ccccc1NC(=O)C(C#N)Cc1cccnc1 (stereo unspecified) | 0.0631 µM [falling, full curve, poor fit] | 0.0631 µM [falling, full curve, poor fit]
O=S(=O)(Nc1ccc2c3c(cccc13)CC2)c1ccc(F)cc1 | 17.8 µM [rising, single point] | –
O=C1CCc2cc(S(=O)(=O)NCCC(=O)NC3CCN(Cc4ccccc4)CC3)ccc2N1 | – | 0.398 µM [falling, partial curve, poor fit]
CCC1Oc2ccc(C)cc2N(CC(=O)N2CCN(c3ccc(F)cc3)CC2)C1=O (stereo unspecified) | 25.1 µM [rising, single point] | 35.5 µM [rising, partial curve]
Cc1nc(CC(=O)NNS(=O)(=O)c2ccc3ccccc3c2)cs1 | – | 3.55 µM [rising, partial curve, poor fit]
O=C(CN(Cc1ccco1)C(=O)c1ccc(Cl)cc1)Nc1ccc(Cl)c(Cl)c1 | – | 12.6 µM [rising, single point]
COc1ccc(C)cc1C1=Nc2ccccc2C1(C)C | 11.2 µM [rising, single point] | 31.6 µM [rising, single point]
CC(/C=N/NC(=O)c1cc(-c2ccncc2)nc2ccccc12)=C\c1ccco1 | – | 0.891 µM [rising, partial curve]
O=C(Nc1ccc(F)cc1)N(CCCN1CCOCC1)Cc1cc2cc3c(cc2[nH]c1=O)OCCO3 | 35.5 µM [rising, single point] | 20 µM [rising, single point]
CCN(CC)S(=O)(=O)c1ccc(N2CCOCC2)c(NC(=O)c2cc([N+](=O)[O-])ccc2Cl)c1 | 0.355 µM [falling, single point] | –
CCCOC(=O)C(C)n1cnc2sc(C)c(C)c2c1=O (stereo unspecified) | – | 0.01 µM [falling, full curve, poor fit]
CN1Cc2cc(C(=O)c3cc(Cl)cc(CSc4ncccn4)c3O)cnc2NC1=O | 0.891 µM [rising, full curve] | 0.447 µM [rising, full curve]
NC(=O)c1sc2nc3c(c(-c4ccccc4)c2c1N)CCC3 | – | 22.4 µM [rising, single point]
O=S(=O)(NCC(c1ccco1)N1CCN(c2ccccc2F)CC1)c1ccccc1 (stereo unspecified) | 11.2 µM [rising, partial curve] | 14.1 µM [rising, single point]
COc1ccc2[nH]cc(CCNC(C)=O)c2c1 | 0.0708 µM [rising, full curve, poor fit] | 0.000794 µM [rising, full curve, poor fit]
O=C(CCCOc1ccc(Cl)cc1Cl)n1nnc2ccccc21 | – | 0.0501 µM [rising, full curve, poor fit]
Cc1cc(/C=N/n2cnnc2)c(C)n1-c1ccccc1 | 7.08 µM [falling, full curve, poor fit] | 10 µM [falling, partial curve, poor fit]
COc1ccccc1Nc1ncnc2c1cnn2-c1cccc(C)c1 | 11.2 µM [rising, partial curve, poor fit] | 10 µM [rising, partial curve]
CCC(CC)c1nnc(NC(=O)c2ccc3ccccc3n2)s1 | 12.6 µM [falling, partial curve] | 28.2 µM [falling, partial curve, poor fit]
O=C(Cc1c[nH]c2ccccc12)Nc1cccc(S(=O)(=O)N2CCCCC2)c1 | – | 28.2 µM [rising, single point]
